From paper PMC11284788 (Journal of Medicinal Chemistry, 2024)
Ends that are not written are not given here.

test: general procedure: Fmoc solid-phase peptide synthesis; Rink amide resin; OxymaPure/DIC; conditions: whole synthesis, 214 nm, one disulfide bridge, sequence written open

Q: Which “final HPLC purity” value does the source give for “KCNTATCATQRLADFLRHSSNPFGAPLSSTNVGSDTY-NH2 (cysteine pairing not given here)” here?
A: The value was 97.5%.

Q: With “KCNTATCATQRLADFLRHSSPNFGAIPSSTNVGSDTY-NH2 (cysteine pairing not given here)” as the substance, how does the “final HPLC purity” value read?
A: The value was 100%.

Q: For “KCNTATCATQRLADFLRHSSPNFGAIPSSTNVGSRTY-amide”, which “final HPLC purity” value is on record?
A: Its value is 100%.

Q: With “KCNTATCATQRLAEFLRHSSPNFGAIPSSTNVGSRTY-NH2 (cysteine pairing not given here)” as the substance, how does the “final HPLC purity” value read?
A: Its value is 100%.
